# Not every detail of the peptide structures is certain; ends, links or a residue may be inferred. Peptide text beside a SMILES is read from it.
# Columns and labels:
# [1] = system: phosphorylated-AMPK (p-AMPK); assay: Immunohistochemistry of lung metastases: p-AMPK; type: in vivo, mouse; settings: mean±SD; CP 200 mg/kg single IP; HNG 5 mg/kg daily IP 14 days
# Protocol: (§1) Methods: Adult male mouse (n=5/group) were seeded with mouse B16 melanoma cells (100,000 cells/mouse) via tail vein on day 1. One week after melanoma cell inoculation, mice were treated either with a single intraperitoneal injection (IP) of CP (200 mg/kg), or daily IP injections of HNG (5 mg/kg), or both for 14 days. Mice were sacrificed at day 21 and lungs were fixed in formaldehyde. Immunohistochemistry was performed on lung metastases with antibodies against phosphorylated-AMPK (p-AMPK), p-4E-BP1 (downstream effector of mTOR) and Ki-67 antigen (a marker of cell proliferation).
# [2] = system: DAOY human pediatric medulloblastoma cells; assay: DAOY human medulloblastoma subcutaneous tumor in SCID mice; type: in vivo; settings: HNG 5 mg/Kg BW/day, 3 days pretreatment+5 days treatment, + TMZ
# Ki-67 antigen = assay: Immunohistochemistry of lung metastases: Ki-67; type: in vivo, mouse
# Protocol: as §1
# germ cells = assay: HNG on CP-induced germ cell apoptosis in mice, 24 hours (Example 6); type: in vivo, mouse
# Protocol: To examine the protective effects of HNG on germ cells, adult mice were treated with vehicle (control); HNG (5 mg/kg/BW, intraperitoneal injection IP); CP (200 mg/kg/BW, IP); and CP+HNG for 24 hours.
# IGF-1 = assay: Plasma IGF-1 levels by ELISA after multiple doses of CP; type: in vivo, mouse; settings: 28 days; HNG 10 mg/kg BW daily subcutaneously; CP 150 mg/kg BW IP, 6 doses
# Protocol: The objective of this study was to investigate whether HNG has protective effect on sperm output after multiple doses of CP in mice. Thirty adult male mice (C57BL/6J) were randomized into 4 groups: 1) 5 as control; 2) 5 received daily subcutaneously injection of HNG (10 mg/kg BW); 3) 10 were given 6 doses of CP (150 mg/kg BW) intraperitoneally at 5-day intervals; 4) 10 received both HNG and CP. All mice were killed at 28 days. Plasma HNG and IGF-1 levels were measured by ELISAs. The cauda epididymal sperm count was performed using a hemocytometer.
# male germ cells [3] = assay: TMZ-induced male germ cell apoptosis in SCID mice (TUNEL, Apoptosis Index); type: in vivo, mouse
# Protocol: Onco-infertility is a major concern of cancer survivors. In this study, it was investigated whether HNG will prevent chemotherapy (Temozolomide, TMZ, an alkylating agent used clinically to treat brain tumors) induced male germ cell apoptosis in SCID mice bearing subcutaneous implants of human medulloblastoma. DAOY human pediatric medulloblastoma cells ([…] cells/animal) were injected subcutaneously into the right flank of 7-week old male SCID mice. After 3 weeks to allow tumor growth, each group of mice (n=4 to 5/group) received one of the following treatments: 1) vehicle (control); 2) HNG intra-peritoneal (IP) injection (HNG, 5 mg/Kg BW/day, 3 days pretreatment+5 days treatment); 3) TMZ IP injection (TMZ, 50 mg/Kg BW/day X 5 days); 4) TMZ and HNG IP injections (TMZ+HNG). Mice were sacrificed 24 hours after the last injection, subcutaneous tumors were dissected and weighed (FIG. 26) and male germ cell apoptosis was assessed by TUNEL staining and quantified (Apoptosis Index, AI, number of apoptotic germ cell/Sertoli cell, FIG. 27). […] HNG ameliorated TMZ-induced germ cell apoptosis without affecting the chemotherapeutic effect on transplanted medulloblastoma tumor in an immunocompromised mouse model.
# male germ cells [4] = type: in vivo
# Protocol: A total of 25 young adult mice (10-12 weeks) were randomly divided into 5 groups (n=5 per group). Five mice were used as control. Twenty mice were inoculated intravenously with B16 murine melanoma cells (2×10^5 cells/mouse). Among these 20 tumor-inoculated mice, 5 mice received no further treatment. After one week, the remaining 15 mice were divided into 3 groups and injected with: 1) HNG daily IP (5 mg/Kg body weight) for 2 weeks; 2) CP (200 mg/Kg body weight IP single injection); 3) combined CP with HNG treatment (same doses as above). All mice were sacrificed 3 weeks after tumor inoculation, and 2 weeks after HNG and/or CP treatment. The animals were sacrificed with 5% pentobarbital (200 mg/kg body weight) IP injection after which blood was collected from the right atrium of the heart. One of the testes from each mouse was immersed fixed in Bouin's solution, and the mice were perfused with saline and subsequently perfuse-fixed with 5% glutaraldehyde in 0.05 M cacodylate buffer (pH 7.4). The lungs were dissected out and post fixed in 5% glutaraldehyde solution for 24 hours and stored in cacodylate buffer at 4° C. for the subsequent tumor count (Lue, et al., 2010; Lue, et al., 2009).
# B16 (melanoma) = assay: Autophagy induction in B16 (fluorescent microscopy, western blot of LC3-II); type: cell-based, mouse
smiles,measurement,setting,value
CC[C@H](C)[C@H](NC(=O)[C@H](CCC(=O)O)NC(=O)CNC(=O)[C@@H](NC(=O)[C@H](CC(C)C)NC(=O)[C@H](CC(C)C)NC(=O)[C@H](CC(C)C)NC(=O)[C@H](CC(C)C)NC(=O)[C@H](CS)NC(=O)[C@H](CO)NC(=O)[C@H](Cc1ccccc1)NC(=O)CNC(=O)[C@H](CCCNC(=N)N)NC(=O)[C@@H]1CCCN1C(=O)[C@H](C)NC(=O)[C@@H](N)CCSC)[C@@H](C)O)C(=O)N[C@@H](CC(=O)O)C(=O)N[C@@H](CC(C)C)C(=O)N1CCC[C@H]1C(=O)N[C@H](C(=O)N[C@@H](CCCCN)C(=O)N[C@@H](CCCNC(=N)N)C(=O)N[C@@H](CCCNC(=N)N)C(=O)N[C@@H](C)C(=O)O)C(C)C [HNG] (H-MAPRGFSCLLLLTGEIDLPVKRRA-OH; N-terminus and C-terminus assumed),percent p-AMPK positive cells in metastatic lung melanoma,[1],40.3±10.7%
same,"suppression of tumor growth by TMZ, addition of HNG",[2],did not alter the marked suppression of tumor growth by TMZ
same,"Ki-67 index, co-administration of HNG with CP",Ki-67 antigen,did not appear to further inhibit Ki-67 index
same,mean Ki-67 index,"Ki-67 antigen; CP 200 mg/kg single IP, HNG 5 mg/kg daily IP 14 days",60.0±14.1
same,germ cell apoptosis (apoptotic index),"germ cells; CP 200 mg/kg/BW IP, HNG 5 mg/kg/BW IP",had no effect
same,CP-induced apoptosis,germ cells; HNG 5 mg/kg/BW IP + CP 200 mg/kg/BW IP,significantly decreased CP-induced apoptosis
same,plasma IGF-1 levels,IGF-1,347.2 ± 20.1 ng/mL
same,TMZ-induced apoptosis in both middle and early+late stages,male germ cells [3]; HNG 5 mg/Kg BW/day + TMZ,significantly prevented TMZ-induced apoptosis
same,"male germ cell apoptosis, HNG alone",male germ cells [3]; HNG 5 mg/Kg BW/day IP,had no effect on male germ cell apoptosis
same,germ cell apoptosis (percent of seminiferous tubules containing apoptotic germ cells),"male germ cells [4]; B16 tumor-bearing mice, 2 weeks after treatment, CP 200 mg/Kg single IP, HNG 5 mg/Kg daily IP",showed a trend to mitigate germ cell apoptosis
same,"testis weight, addition of HNG to CP treatment",male germ cells [4]; HNG 5 mg/Kg daily IP 2 weeks + CP 200 mg/Kg,failed to restore the testis weight
same,CP-induced germ cell apoptosis,"male germ cells [4]; daily HNG 5 mg/Kg IP for 2 weeks + CP 200 mg/Kg, B16 tumor-bearing mice",attenuated CP-induced germ cell apoptosis
same,autophagy,B16 (melanoma),increased autophagy in B16 cells

# From patent publication US20150374784A1, “COMPOSITIONS AND METHODS FOR REDUCING GERM CELL DEATH” (Los Angeles Biomedical Research Institute at Harbor-UCLA …, priority 2014, published 2015)
